Values from PubChem BioAssay AID1053209 (Peter MacCallum Cancer Centre, 2014).
The whole screen tested about 1,580 reagents; shown is a random part of them. In the full data, 207 (13%) were called active. 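Rows are single siRNAs; four siRNAs per gene were tested, a gene counting as confirmed only when at least two agree.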 The numbers tell different reagents against one gene apart.

Screen: 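Gene losses that combine with doxorubicin to kill mouse bone cancer cells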 (follow-up of hits)
System: mouse primary osteosarcoma cells
Reagents: single siRNA against mouse genes, 25 nM (text also states 40 nM)
Duration: about 120 h (48 h before drug, then 72 h with drug)
Conditions: doxorubicin 100 nM (about IC30-40), added 48 h after transfection, for 72 h
Measured: 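ATP-based luminescent viability, with or without doxorubicin, relative to non-targeting control NT1, mean of two replicates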
Reading the numbers: viability with doxorubicin, vs NT1: higher = more viable cells under doxorubicin; viability ratio, doxorubicin over no drug: higher = less sensitisation to doxorubicin; viability without drug, vs NT1: higher = more viable cells without drug
Hit rule: 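Active when doxorubicin viability is at most 0.7 of NT1 and drug-free viability lies between 0.7 and 1.1, class LC dox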

target	siRNA no.	combined effect class	viability with doxorubicin, vs NT1	viability ratio, doxorubicin over no drug	viability without drug, vs NT1	activity call
Rps15a	1	low viability with and without drug	0.36	0.68	0.53	inactive
Rps15a	2	low viability with and without drug	0.54	0.98	0.55	inactive
Rps15a	3	low viability with and without drug	0.22	0.79	0.28	inactive
Rps15a	4	low viability with and without drug	0.29	0.67	0.43	inactive
Tiam2	1	normal viability with and without drug	0.9	0.96	0.94	inactive
Tiam2	2	normal viability with and without drug	0.95	0.97	0.98	inactive
Tiam2	3	normal viability with and without drug	0.79	0.85	0.93	inactive
Tiam2	4	normal viability with and without drug	1.07	1.08	0.99	inactive
Snrpa1	1	normal viability with and without drug	0.8	0.84	0.95	inactive
Snrpa1	2	low viability with and without drug	0.12	0.26	0.46	inactive
Snrpa1	3	low viability with and without drug	0.14	0.25	0.57	inactive
Snrpa1	4	low viability with and without drug	0.19	0.3	0.63	inactive
Suds3	1	normal viability with and without drug	0.82	0.91	0.9	inactive
Suds3	2	normal viability with and without drug	0.76	0.81	0.94	inactive
Suds3	3	normal viability with and without drug	0.85	0.9	0.94	inactive
Suds3	4	normal viability with and without drug	0.78	0.95	0.82	inactive
Eif3b	1	low viability with and without drug	0.45	0.85	0.53	inactive
Eif3b	2	low viability with and without drug	0.27	0.59	0.46	inactive
Eif3b	3	low viability with and without drug	0.45	0.69	0.65	inactive
Eif3b	4	low viability only with doxorubicin; normal without drug	0.4	0.56	0.72	active
Kpnb1	1	low viability with and without drug	0.22	0.48	0.46	inactive
Kpnb1	2	low viability with and without drug	0.21	0.68	0.31	inactive
Kpnb1	3	normal viability with and without drug	0.78	0.85	0.92	inactive
Kpnb1	4	low viability with and without drug	0.26	0.53	0.49	inactive
Lyrm1	1	high viability only with doxorubicin	1.16	1.35	0.86	inactive
Lyrm1	2	normal viability with and without drug	0.92	0.87	1.06	inactive
Lyrm1	3	normal viability with and without drug	0.82	0.77	1.06	inactive
Lyrm1	4	normal viability with and without drug	0.92	0.9	1.02	inactive
Snrnp70	1	low viability only with doxorubicin; normal without drug	0.66	0.77	0.86	active
Snrnp70	2	normal viability with and without drug	0.84	0.9	0.93	inactive
Snrnp70	3	low viability only with doxorubicin; normal without drug	0.4	0.55	0.73	active
Snrnp70	4	normal viability with and without drug	0.92	0.99	0.93	inactive
Ppih	1	normal viability with and without drug	0.97	0.99	0.98	inactive
Ppih	2	low viability only with doxorubicin; normal without drug	0.55	0.69	0.8	active
Ppih	3	normal viability with and without drug	0.92	0.88	1.04	inactive
Ppih	4	normal viability with and without drug	1.04	1.09	0.95	inactive

Continued, starting with the last 8 of the part before.
target	siRNA no.	combined effect class	viability with doxorubicin, vs NT1	viability ratio, doxorubicin over no drug	viability without drug, vs NT1	activity call
Snrnp70	1	low viability only with doxorubicin; normal without drug	0.66	0.77	0.86	active
Snrnp70	2	normal viability with and without drug	0.84	0.9	0.93	inactive
Snrnp70	3	low viability only with doxorubicin; normal without drug	0.4	0.55	0.73	active
Snrnp70	4	normal viability with and without drug	0.92	0.99	0.93	inactive
Ppih	1	normal viability with and without drug	0.97	0.99	0.98	inactive
Ppih	2	low viability only with doxorubicin; normal without drug	0.55	0.69	0.8	active
Ppih	3	normal viability with and without drug	0.92	0.88	1.04	inactive
Ppih	4	normal viability with and without drug	1.04	1.09	0.95	inactive
Or1j21	1	high viability only with doxorubicin	1.12	1.12	1	inactive
Or1j21	2	normal viability with and without drug	1.08	0.99	1.09	inactive
Or1j21	3	low viability only with doxorubicin; normal without drug	0.64	0.84	0.76	active
Or1j21	4	normal viability with and without drug	0.86	0.85	1.01	inactive
Sash3	1	normal viability with and without drug	0.74	0.84	0.88	inactive
Sash3	2	high viability only without drug	1.04	0.95	1.1	inactive
Sash3	3	normal viability with and without drug	1.04	1.02	1.02	inactive
Sash3	4	normal viability with and without drug	0.94	1.02	0.92	inactive
Ankle2	1	normal viability with and without drug	1.08	1.13	0.96	inactive
Ankle2	2	normal viability with and without drug	0.84	0.82	1.02	inactive
Ankle2	3	low viability only with doxorubicin; normal without drug	0.7	0.81	0.86	active
Ankle2	4	low viability only with doxorubicin; normal without drug	0.5	0.67	0.75	active
Taco1	1	normal viability with and without drug	0.9	0.96	0.94	inactive
Taco1	2	normal viability with and without drug	0.82	0.98	0.84	inactive
Taco1	3	normal viability with and without drug	0.84	0.93	0.9	inactive
Taco1	4	normal viability with and without drug	1.07	1.02	1.05	inactive
Tcl1b2	1	low viability with and without drug	0.3	0.48	0.62	inactive
Tcl1b2	2	normal viability with and without drug	0.9	0.9	1	inactive
Tcl1b2	3	normal viability with and without drug	1.08	1.01	1.07	inactive
Tcl1b2	4	normal viability with and without drug	0.98	0.94	1.04	inactive
Slc35f5	1	normal viability with and without drug	0.85	0.87	0.98	inactive
Slc35f5	2	normal viability with and without drug	0.97	0.9	1.08	inactive
Slc35f5	3	high viability only without drug	0.88	0.77	1.15	inactive
Slc35f5	4	normal viability with and without drug	0.9	0.92	0.98	inactive
